Measured values taken from patent publication US8440695B2 (St Jude Children's Research Hospital, priority 2005, dated 2013).
For at least one compound, name, drawing or mass did not settle the structure.

How the values were obtained:
[1] = test system: thioglycollate-elicited macrophages; assay: LPL enzyme activity of elicited macrophages treated in culture with JNK inhibitor; assay type: cell-based, mouse
[2] = test system: rheumatoid arthritis patients; settings: oral, test group of 100 rheumatoid arthritis patients; cited from earlier work

Oc1c2ccccc2c2c3c(cccc13)N=N2 [SP600125]
LPL activity ([1]; ATM null cells, treated in culture, vs DMSO): decreased to control levels
LPL activity ([1]; ATM^+/− macrophages): reduced to control levels

CCN(CCO)CCCC(C)Nc1ccnc2cc(Cl)ccc12 (stereo not drawn) [hydroxychloroquine, 7-chloro-4-(4-ethyl-(2-hydroxyethyl)-amino-1-methylbutylamino)quinoline]
lipid profile [2]: significant overall improvement
